The assay has as its target human folate receptor alpha as expressed on cells (human) (UniProt P15328). Description: cell ELISA on fixed A431-FR, OVCAR3 and IGROV1 cells, F(ab')2.

Sequences of proteins named here, by UniProt entry; tags and fusion partners are left off. A change or cut given only in a name is not applied to a line headed by its entry.
UniProt P15328: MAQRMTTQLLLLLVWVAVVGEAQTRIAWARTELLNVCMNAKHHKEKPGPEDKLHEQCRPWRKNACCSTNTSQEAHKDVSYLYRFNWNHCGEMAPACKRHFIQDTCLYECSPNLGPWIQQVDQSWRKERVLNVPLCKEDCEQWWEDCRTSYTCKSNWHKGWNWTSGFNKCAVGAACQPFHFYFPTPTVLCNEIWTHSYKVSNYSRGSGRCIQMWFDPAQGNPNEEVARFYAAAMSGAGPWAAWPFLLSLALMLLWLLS

These are yes or no findings as the source states them, for the method shown. Some entries that bind do so weakly or less than the wild type.

B1: AFRA F(ab')2 natural dimer (other)
light: EIVLTQSPASLAVSPGQRATITCRASESVSFLGINLIHWYQQKPGQPPKLLIYQASNKDTGVPARFSGSGSGTDFTLTINPVEANDTANYYCLQSKNFPPYTFGQGTKLEIKRTVAAPSVFIFPPSDEQLKSGTASVVCLLNNFYPREAKVQWKVDNALQSGNSQESVTEQDSKDSTYSLSSTLTLSKADYEKHKVYACEVTHQGLSSPVTKSFNRGEC
heavy: NVQLVESGGGLVQPGRSLRLSCTTSGFTFGDYAMIWARQAPGKGLEWVSSISSSSSYIYYADSVKGRFTISRDNAKNSLYLQMNSLRAEDTAVYYCARERYDFWSGMDVWGKGTTVTVSSASTKGPSVFPLAPSSKSTSGGTAALGCLVKDYFPEPVTVSWNSGALTSGVHTFPAVLQSSGLYSLSSVVTVPSSSLGTQTYICNVNHKPSNTKVDKKDKTSC
modifications: C-terminal hinge cysteine disulfide-bonded to the second Fab'
notes: F(ab')2 made by natural oxidation of Fab'; By SDS-PAGE the preparation is 80% L2H2 dimer, 16% L2H and 4% free heavy chain; For Q1N see the note of m1; also called F(ab')2-AFRA; AFRA dimer
Turning to B1, the binding entry is listed as “binds”.

The values are drawn from US20100055034A1 (DOMPE PHA MA S P A, published 2010).
